This is one part of the list.
B1: il2ra_site1_1z92_sap_19_mot_HHH_b1_08133_000000026_0001_1_19_H_._HHH_b2_05485_0001_0000100003_0000001_0_0001 (protein)
chain: SEERMHEMALRYAGDPERALRILLKIARAFGDEEVVELIEELLERVRRGEIPPEEAVELAVRLVA
B2: il2ra_site1_2b5i_sap_14_mot_HHH_b1_03046_af2_000000154_0001_39_55_H_._HHH_b1_00888_af2_0001_0000300015_0000001_0_0001_af2pred_dldesign_0_af2pred (protein)
chain: SSSSSSEDAREQVDELIEEAKKLEDPLERRKILTLARLIAKKAKDEELLKRIEEVEAELSSSSSS
B3: il2ra_site1_3nfp_sap_20_mot_HHH_b2_06429_af2_000000115_0001_1_18_H_._HHH_b1_03290_0001_0000300026_0000001_0_0001_af2pred_0001_af2pred_swapped (protein)
chain: SSSSNALELLREAAEELVRLLQEGDREEAERLLKEVAQELKELGNRHAARSLERAFELLARSSSS
B4: il2ra_site1_2b5i_sap_7_mot_HHH_b1_07956_af2_000000065_0001_19_34_H_._HHH_b2_02012_0001_0000300005_0000001_0_0001 (protein)
chain: SSSSDADRELVRFIFRLMFRFGLSAEQSQLLNRLLAELLEEGVSDEEIKRLLEELAEELSSSSSS
B5: il2ra_site1_1z92_normal_mot_54e474eed2d0515e81978198f0f96ec2_0001_000000202_0001_15_30_H_._321007649576c6d16d41e547348c2159_0001_0001_0000100011_0000001_0_af2pr … (protein)
chain: SVYVLDAERDAKLGLPPENVAKALARFLLEELGDPEEAEELLQELVEKTKDPILELAIEIVRELG
B6: il2ra_site1_3nfp_normal_mot_HHH_b2_00162_af2_000000036_0001_22_38_H_._HHH_b2_07432_af2_0001_0000100001_0000001_0 (protein)
chain: SSSSSDKRELLQRAFELVREAIKTKDEEELREIIEEAERIAEEAGDEKLLESLRRALELLSSSSS
B7: il2ra_site1_1z92_normal_mot_HHH_b1_01565_af2_000000147_0001_1_17_H_._HHH_b1_05822_0001_0000100006_0000001_0 (protein)
chain: SSSSSVLEIVEELLELLEELGDEELLRRLQEALERAQRHGDLELLKELDEIAVEVDEILESSSSS
B8: il2ra_site2_3nfp_sap_18_mot_HHH_b1_06589_000000230_0001_37_50_H_._HHH_b2_08153_af2_0001_0000100002_0000001_0_0001 (protein)
chain: SSSSDLENVVESAEQIAEELGDEETLEELERLLEEAKETGDPRLELEVFALARELYLKAVRSSSS
B9: il2ra_site1_3nfp_normal_mot_6fb122be6cd73e00adad15538fff8bb1_0001_1_000000019_0001_17_32_H_._HHH_b2_07001_0001_0000100003_0000001_0_af2pred_0001_af2pred (protein)
chain: SSSSSSDEYLEEIVERAQKLNPEYEEELERLLEEAKREGDARLLRELIQLAARLLLEGSSSSSSS
B10: il2ra_site2_3nfp_sap_19_mot_HHH_b1_03259_000000044_0001_22_38_H_._fade74b90712e35ca62446d022fe2564_0001_1_0001_0000100016_0000001_0_0001 (protein)
chain: SSSSDEEEIEKEFEKEIRRLYEEGNPEEARRVLAELSRLAWELDDIELYEVVAELLLMLARSSSS
B11: il2ra_site1_2b5i_normal_mot_HHH_b2_04910_000000118_0001_1_19_H_._HHH_b1_04383_0001_0000600015_0000001_0_af2pred_dldesign_0_af2pred (protein)
chain: SSSSDAEALREAERLFLKADELFQAGKPEEAKKLLEKALELAKKAGANSLTKIIESALKELSSSS
B12: il2ra_site1_1z92_normal_mot_7f39e2d7389de0c2f60e905c27398b6a_0001_1_000000104_0001_37_51_H_._6b3396789ca6d50aa04d7297b35efea3_0001_0001_0000200012_0000001_0_af2 … (protein)
chain: SIEEVLEDARRFAGGDPEKAARFIVKLMEASAGDPEEAEKDLRELVEEVGDPILRRALELLEERK
B13: il2ra_site2_3nfp_sap_25_mot_HHH_b1_04797_000000295_0001_41_55_H_._HHH_b1_05558_0001_0000100011_0000001_1_0001_af2pred_0001_af2pred (protein)
chain: SSSSSSDVEELLKEVEKLIEEGDEEEAKKALEEAAQLAVELGDFELFAKIAELLRELLSSSSSSS
B14: il2ra_site1_1z92_sap_14_mot_HHH_b2_01902_af2_000000252_0001_25_40_H_._a1d55611ccd54d2a00b8f792ef18dabe_0001_0001_0000200017_0000001_0_0001_af2pred_0001_af2pred_ … (protein)
chain: SELLKRQIEKRLEAGDLEAARKIIERFLRATGDPNLERILELIERYEKEKDPKLLEEIKQLIEEL
B15: il2ra_site1_2b5i_normal_mot_HHH_b1_00432_000000039_0001_1_18_H_._HHH_b1_04984_0001_0000300017_0000001_0_af2pred_dldesign_0_af2pred (protein)
chain: SSSSSDVDARVDELFQRALRLWREGRKEEARRLLEEALELLEKANKKKKLAEIRKLLELLSSSSS
B16: il2ra_site1_2b5i_sap_16_mot_HHH_b2_03161_000000036_0001_1_18_H_._HHH_b1_04838_af2_0001_0000100002_0000001_0_0001_af2pred_dldesign_0_af2pred (protein)
chain: SSSSSDPLAKAKAAIKEAEELAKKDKRKAIELLEKAYKEAGAANNDEAEKLLEDKFKELLSSSSS
B17: il2ra_site2_3nfp_normal_mot_49a7c9051cacde34b31d84fabeb7f3ea_0001_af2_000000030_0001_39_52_H_._HHH_b2_01636_af2_0001_0000100007_0000001_0 (protein)
chain: SSSSDLEEEVRKLLEEVEELLKEGNRFEALELLLRAHKLAVENDNPELVRKELELYAELASSSSS
B18: il2ra_site2_3nfp_sap_25_mot_HHH_b1_03818_000000217_0001_1_20_H_._HHH_b2_04458_af2_0001_0000300006_0000001_0_0001 (protein)
chain: SSSSDEERLEELLRILEELLHTDEEEFRRVLAEASHLAFEAGDSEVFFRLAELAYKLLQLSSSSS
B19: il2ra_site1_3nfp_normal_mot_HHH_b1_01231_af2_000000170_0001_1_16_H_._HHH_b1_04617_0001_0000100001_0000001_0_af2pred_0001_af2pred_1 (protein)
chain: SSSSDREEALKLFREAAQAALEGNPEEARELLEEAEELAERAGNEILLKRIRNALRVAKLGSSSS

Target: il2ra, P01589
Assay: yeast display titration

Binder | apparent Kd
B1 | inactive: no binding seen
B2 | inactive: no binding seen
B3 | inactive: no binding seen
B4 | inactive: no binding seen
B5 | inactive: > 0.583 µM
B6 | inactive: no binding seen
B7 | inactive: no binding seen
B8 | inactive: no binding seen
B9 | inactive: no binding seen
B10 | inactive: 7.16 to 19.5 µM
B11 | inactive: no binding seen
B12 | inactive: no binding seen
B13 | inactive: no binding seen
B14 | inactive: no binding seen
B15 | inactive: no binding seen
B16 | inactive: no binding seen
B17 | inactive: no binding seen
B18 | inactive: no binding seen
B19 | inactive: no binding seen

A few values from the entries so far.
B9 | apparent Kd: inactive: no binding seen
B8 | apparent Kd: inactive: no binding seen
